{"source": "patent US20020045179A1", "about": "“Toxicity typing using mesenchymal stem cells” (priority 2000, published 2002)", "origin": "cited, not measured here", "settings": "Table 1, predetermined toxicity by tissue/organ"}
{"smiles": "O=C(O)c1cn(C2CC2)c2cc(N3CCNCC3)c(F)cc2c1=O", "note": "[ciprofloxacin]", "values": [{"measurement": "TOXICITIES LIVER", "value": "ntc"}]}
